Values from PubChem BioAssay AID504786 (Drosophila RNAi Screening Center, 2011)
The screen tested about 21,000 reagents; this is an unselected part of those with a known target gene and a result. 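Primary screen; positive scores mean lost reporter signal, so the sign may be inverted from the usual convention.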

Assay: 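Fly genes required for HIF-dependent transcription when hypoxia is mimicked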 (primary screen)
Cell system: Drosophila S2 cells with a stable HIF luciferase reporter
Knock-down reagent: long dsRNA against Drosophila genes, about 0.2 µg dsRNA per well of a 384-well plate
Duration: three days of knock-down, then 20 h of DFO before reading
Challenge: desferrioxamine (DFO) at 100 µM, an iron chelator that mimics hypoxia, for 20 h
Measurement: 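Firefly luciferase driven by the mouse ldh-a hypoxia-response element, measured after 20 h of 100 µM DFO; z-scores per plate, higher means more signal lost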
Reading the numbers: z-score: higher = stronger loss of HIF reporter signal

gene	DRSC id	z-score, replicate 1	z-score, replicate 2	z-score, replicate 3	z-score, replicate 4
CG8813	DRSC00706	-0.3	-0.2		
CG42843 (retired record)	DRSC01118	-0.2	0		
CG42843 (retired record)	DRSC02231	-0.3	-0.5		
CG42843 (retired record)	DRSC02233	-0.1	-0.2		
Khc-73	DRSC07449	-0.1	0.2		
Ork1	DRSC20266	-0.2	0.1		
CG6283	DRSC16009	0.2	0.5		
Polr3A	DRSC19766	0.6	1.7		
Df31	DRSC03738	-0.3	-0.2	-0.9	-0.3
DIP-iota	DRSC02140	-0.3	-0.4		
CG6048	DRSC18398	-0.3	-0.5		
sNPF	DRSC02309	-0.1	0.9		
CG13931	DRSC08400	-0.3	-0.3		
CG14931	DRSC02413	-0.1	-0.2		
alpha-Man-Ia	DRSC17642	0.6	-0.2		
alpha-Man-Ia	DRSC18162	-0.1	0.2		
alpha-Man-Ia	DRSC18163	-0.3	-0.1		
alpha-Man-Ia	DRSC18735	-0.1	1		
mRpL39	DRSC10255	1.9	2.3		
FarO	DRSC18475	-0.4	-0.5		
Son	DRSC16400	-0.3	-0.3		
Acp63F	DRSC08137	-0.2	-0.8		
GstO3	DRSC10710	-0.3	-0.6		
CG17047	DRSC06648	-0.4	-0.1		
mbc	DRSC16995	0.5	0.1		
PpD6	DRSC00774	0.1	0.1		
Ostgamma	DRSC03074	-0.1	0.1		
Prosbeta4	DRSC02603	-0.3	4.6		
PDZ-GEF	DRSC03231	-0.1	0.1		
ETH	DRSC04612	0	-0.3		
CG13954	DRSC06442	-0.3	-0.5		
Nepl16	DRSC14650	-0.3	-0.5		
FMRFaR	DRSC08555	-0.4	-0.6		
CG12990	DRSC19510	-0.3	-0.9		
Pgant7	DRSC19991	-0.1	-0.3		
tef	DRSC07301	-0.2	-0.1		
CG34284	DRSC14773	-0.8	0.3		
CG15211	DRSC19657	-0.3	-0.8		
CG4678	DRSC19911	-0.2	-0.7		
CG4678	DRSC19912	-0.2	-0.1		
Srg1	DRSC14640	-0.1	0.9		
mxc	DRSC17819	-0.4	1.6		
CG6426	DRSC06985	-0.2	0.6		
CG13282	DRSC02254	-0.2	-0.1		
Ugt49B2	DRSC16049	0.5	-0.7		
mal	DRSC20581	-0.2	-0.4		
CG12589	DRSC12215	0	0.1		
CG31463	DRSC14346	-0.1	-0.1		
CG11594	DRSC08207	-0.4	-0.6		
CG42525	DRSC08026	-0.1	-0.7	-0.6	-0.4
mbf1	DRSC11365	-0.2	-0.4		
dor	DRSC18765	-0.2	-0.1		
CG6171	DRSC15982	0	0.1		
inaC	DRSC07632	-0.3	-0.3		
Ptth	DRSC00356	0	-0.2		
COX5B	DRSC02115	0.8	1.2		
CG1077	DRSC12146	-0.3	0.1		
CG10205	DRSC05979	1.7	1.4		
BomBc1	DRSC06501	-0.4	-0.5		
CG14069	DRSC02372	-0.2	-0.6		
AP-1sigma	DRSC15899	-0.3	0		
Msp300	DRSC00854	0.4	0		
Msp300	DRSC00856	-0.3	-0.3		
Msp300	DRSC00857	-0.3	-0.6		
Msp300	DRSC00858	1	0.2		
Msp300	DRSC02360	-0.1	0.1		
Msp300	DRSC03369	-0.4	-0.7		
Msp300	DRSC03370	-0.3	-0.3		
l(2)gd1	DRSC02773	-0.4	-0.6		
ppk12	DRSC04086	0.1	0.1		
Obp69a	DRSC11247	-0.1	0.1		
f	DRSC19174	0	0.3		
f	DRSC19516	-0.1	-0.3		
f	DRSC20331	-0.1	0.4		
CG7432	DRSC16243	0.1	-0.4		
CG33322	DRSC03204	-0.3	-0.3		
CG10931	DRSC06015	-0.1	0.5		
CG10969	DRSC09811	-0.2	-0.5		
drn	DRSC15147	1.8	2		
Dnaaf6	DRSC10473	-0.1	-0.5		
Cyt-b5	DRSC07392	-0.3	0.1		
CG1492	DRSC19605	-0.3	1.2		
cl	DRSC02118	-0.3	-0.6		
Obsc	DRSC04301	-1.5	-0.2		
Obsc	DRSC04302	-0.2	-0.3		
Obsc	DRSC04303	-0.4	-0.5		
Obsc	DRSC04430	-0.1	-0.3		
CG10395	DRSC04840	-0.2	-0.3		
mino	DRSC14132	-0.3	-0.4		
REPTOR-BP	DRSC02683	-0.3	-0.4		
CG7896	DRSC16335	-0.3	-0.4		
Adk3	DRSC05917	-0.3	-0.3		
Nubp2	DRSC11758	-0.3	-0.1		
ZnT49B	DRSC07225	-0.4	-0.7		
CG14785	DRSC18604	0.1	-0.4		
SMC1	DRSC16846	0.1	0		
LeuRS	DRSC00581	-0.2	-0.1		
PlexA	DRSC17220	-0.3	0		
Buffy	DRSC05957	-0.5	0		
CG3942	DRSC15525	-0.3	-0.4		
CG13545	DRSC04187	-0.3	-0.2		
CG40485	DRSC20624	-0.5	-0.8		
rux	DRSC18829	-0.4	-0.4		
CG31693	DRSC03674	-0.2	-0.2		
CG14567	DRSC11728	-0.3	-0.2		
CG14011	DRSC02343	-0.3	-0.3		
